The record followed here is patent US20050158323A1, “Methods of killing tumor cells by targeting internal antigens exposed on apoptotic tumor cells” (Vaccinex, Inc., priority 2003, published 2005).

Results are given in words; binding and its absence hold for the method and conditions named. Some entries that bind do so weakly or less than the wild type. For part of these data: Where a sequence is shown, tags or fusion partners need not be part of it.

The target in assay [1] is T1, recombinant C35 protein (human) (UniProt Q9BRT3).
T1 sequence: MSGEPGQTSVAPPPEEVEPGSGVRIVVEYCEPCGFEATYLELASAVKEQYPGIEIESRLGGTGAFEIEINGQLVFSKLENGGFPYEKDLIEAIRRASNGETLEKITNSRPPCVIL
As to the kind of experiment: ELISA and Western blot. (In general: ELISA stands for enzyme-linked immunosorbent assay.)

For assay [2], the target named is T2, 6× His-tagged recombinant human C35 (rhC35) (human) (UniProt Q9BRT3).
T2 sequence: T1 sequence
As to the kind of experiment: Western blot of Lys-C digested rhC35, 1 µg/ml antibody. A general note: In western blotting, separated proteins are transferred to a membrane and probed.

B1: 1F2 murine anti-C35 monoclonal antibody (antibody, V domains shown)
VH: DVQLQESGPGLVKPSQSLSLTCSVTGYSITSGYFWNWIRQFPGNKLEWMGYISYDGSNNSNPSLKNRISFTRDTSKNQFFLKFNSVTTDDSAAYYCTRGTTGFAYWGQGTLVTVSA
VL: QIVLTQSPAIMSASPGEKVTISCSASSSVSYMNWYQQKPGSSPKPWIYHTSNLASGVPARFSGSGSGTSYSLTISSMEAEDAATYYCQQYHSYPPTFGGGTKLEIK
For the molecule B1, the binding entry in assay [1] and in assay [2] was “binds” throughout.

B2: 1B3 murine anti-C35 monoclonal antibody (antibody, V domains shown)
VH: EVQLQESGPSLVKPSQTLSLTCSVTGDSITSGYWNWIRKFPGNKLEYVGYISYSGGTYYNPSLKSRISITRDTSKNHYYLQLNSVTTEDTATYYCARGAYYGGAFFPYFDVWGAGTTVTVSS
VL: DVQITQSPSFLAASPGETITINCRASKYISKHLVWYQEKPGETKKLLIYSGSTLQSGLPSRFSGSGSGTDFTLTISSLEPEDFAMYYCQQHNEYPLTFGAGTKLELK
In the case of B2, in assay [1], the binding result is “binds”.
